Test results from article PMC8616582.
No constants are given. Whether binding was seen depends on the method and setting. In cells and extracts the contact can be indirect. A yes stands for co-enrichment or nearness to the bait. Other partners may have been found. A no says only that the protein was not detected with the bait.

Tests used:
[1] = biological target: T1, DEPS-1::TurboID (C. elegans (endogenous in adult animals)) (UniProt Q9N303); assay: proximity labelling; TurboID knocked in at the bait's own locus; animals grown at 15°C to L4, then overnight at 25°C; lysate in RIPA buffer, streptavidin magnetic beads overnight at 4°C, washes with RIPA, 1 M KCl, 0.1 M Na2CO3 and 2 M urea; on-bead trypsin digestion and LC-MS/MS; enrichment against untagged N2 (fold change ≥8, p<0.05), three biological …
T1 sequence: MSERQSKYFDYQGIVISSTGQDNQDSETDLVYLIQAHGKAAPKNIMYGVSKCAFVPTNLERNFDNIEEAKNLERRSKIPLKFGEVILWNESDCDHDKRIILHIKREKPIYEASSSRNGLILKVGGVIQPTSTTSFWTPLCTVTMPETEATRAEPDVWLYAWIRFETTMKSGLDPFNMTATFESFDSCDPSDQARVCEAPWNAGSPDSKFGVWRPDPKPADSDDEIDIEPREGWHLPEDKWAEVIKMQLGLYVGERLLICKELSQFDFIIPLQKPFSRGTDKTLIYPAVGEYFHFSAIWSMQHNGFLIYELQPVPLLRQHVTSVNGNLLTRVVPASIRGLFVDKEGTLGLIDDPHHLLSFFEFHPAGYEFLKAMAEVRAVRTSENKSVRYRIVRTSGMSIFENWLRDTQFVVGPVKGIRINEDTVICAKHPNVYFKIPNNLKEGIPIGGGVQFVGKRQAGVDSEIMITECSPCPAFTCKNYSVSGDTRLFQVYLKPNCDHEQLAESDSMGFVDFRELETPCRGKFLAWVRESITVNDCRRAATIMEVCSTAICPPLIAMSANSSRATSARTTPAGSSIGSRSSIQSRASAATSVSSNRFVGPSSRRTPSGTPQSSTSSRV

[2] = biological target: T2, TurboID::GLH-1 (C. elegans (endogenous in adult animals)) (UniProt P34689); assay: as above
T2 sequence: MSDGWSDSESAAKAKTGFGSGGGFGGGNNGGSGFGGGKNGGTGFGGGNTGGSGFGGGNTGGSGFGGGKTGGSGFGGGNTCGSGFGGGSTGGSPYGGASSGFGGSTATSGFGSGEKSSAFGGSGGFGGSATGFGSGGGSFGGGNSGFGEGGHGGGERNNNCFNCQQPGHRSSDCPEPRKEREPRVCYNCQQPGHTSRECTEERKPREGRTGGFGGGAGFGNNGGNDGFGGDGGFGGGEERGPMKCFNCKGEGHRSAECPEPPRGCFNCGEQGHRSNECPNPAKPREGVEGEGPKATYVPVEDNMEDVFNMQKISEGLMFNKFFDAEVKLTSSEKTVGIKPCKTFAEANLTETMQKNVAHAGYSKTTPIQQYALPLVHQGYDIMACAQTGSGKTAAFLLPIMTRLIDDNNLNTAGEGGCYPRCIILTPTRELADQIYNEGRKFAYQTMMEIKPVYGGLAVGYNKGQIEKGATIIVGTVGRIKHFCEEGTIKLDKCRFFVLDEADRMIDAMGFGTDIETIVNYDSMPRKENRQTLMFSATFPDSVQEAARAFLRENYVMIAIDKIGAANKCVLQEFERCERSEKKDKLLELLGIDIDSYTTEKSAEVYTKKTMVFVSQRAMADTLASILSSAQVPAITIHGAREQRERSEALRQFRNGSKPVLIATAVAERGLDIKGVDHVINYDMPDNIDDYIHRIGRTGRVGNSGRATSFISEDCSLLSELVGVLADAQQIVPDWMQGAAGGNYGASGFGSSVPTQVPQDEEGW

- binding [1]: no binding
- binding [2]: no binding
B1: HRDE-1/WAGO-9 (protein, UniProt Q09249 1-1032)
chain: MADLLDKIMGSSSSNRIPKRDNRMNQDKDEPTSKRSAPMFSTPKSTTPIGRDSFATMDTMNVQMNMFPVDIKDMPHKIQRFQVDVIVCSSNGKQINANLGVLAAKGDVNSHNRRLAQYYIMRTVHDKLLVKFSGKSHHFLAYDCAATLYLPEGVYTGDDQEEVTLTIDDFPKEEWKFVSKLSRRKDDSYLVVLKPAGFVYTQGEVAQEEANRMELTRIIEIVTSQKLNNEDYLQFGNATFPRLSPPHSEPDAISEIRSGFAKVSRLSQNGGGKAFMTVDTKISPFYKDTSVIKFSSNKLSEMKGGGGGRGGYGRSDSRDSRGGYRGGRSDSRDFRGVYGNRGGNDRYRDESRGRRDMYDSRRDSGSSNGADYSPSDAAELEHAFGERGNTKRCIEEALKGLDVECTHLKGNLIRVSSIAENNAENTSFMMKDDKGEREVTVAEYFLLQYNIKLKYPRLPLVVSKRFKHESFFPMELLRIAPGQRIKVNKMSPTVQSAMTGRNASMPQHHVKLVQDILRDNLKLEQNKYMDAFGIKLMSTEPIQMTAKLLPPAQIKFKGQTYMPDMSRPAFRTQDKFVEPARIRKIGIVVFDNCIQMRQAEDFCDKLSNFCRDNGITVEKDSRDWSIRELNSSDSVAIQNLMKKWLDDRVDILVGIAREKKPDVHDILKYFEESIGLQTIQLCQQTVDKMMGGQGGRQTIDNVMRKFNLKCGGTNFFVEIPNAVRGKAVCSNNETLRKKLLEHVQFIGFEISHGASRTLFDRSRSQMDGEPSVVGVSYSLTNSTQLGGFTYLQTQKEYKLQKLDEFFPKCVRSYKEHSKTLPTRIVIYRVGAGEGNFNRVKEEVEEMRRTFDKIQPGYRPHLVVIIAQRASHARVFPSCISGNRATDQNIPSGTCVENVLTSYGYDEFILSSQTPLIGTVRPCKYTILVNDAKWSKNELMHLTYFRAFGHQVSYQPPSVPDVLYAAENLAKRGRNNYKIHQRYVNLQAVENRIIKDHSELINEDMREELAAAIVDEMSVAMNGMTIPKRNFWA
